Measurements as given in article PMC5611444.
No constants are given. Whether binding was seen depends on the method and setting. In cells and extracts the contact can be indirect. Here binding means that the protein was enriched with, or labelled near, the bait; the list need not be complete. Where a sequence is shown, tags or fusion partners need not be part of it.

The chains behind the UniProt entries cited, without tags or fusion partners. Residues count along the entry.
UniProt P27824, residues 21-592: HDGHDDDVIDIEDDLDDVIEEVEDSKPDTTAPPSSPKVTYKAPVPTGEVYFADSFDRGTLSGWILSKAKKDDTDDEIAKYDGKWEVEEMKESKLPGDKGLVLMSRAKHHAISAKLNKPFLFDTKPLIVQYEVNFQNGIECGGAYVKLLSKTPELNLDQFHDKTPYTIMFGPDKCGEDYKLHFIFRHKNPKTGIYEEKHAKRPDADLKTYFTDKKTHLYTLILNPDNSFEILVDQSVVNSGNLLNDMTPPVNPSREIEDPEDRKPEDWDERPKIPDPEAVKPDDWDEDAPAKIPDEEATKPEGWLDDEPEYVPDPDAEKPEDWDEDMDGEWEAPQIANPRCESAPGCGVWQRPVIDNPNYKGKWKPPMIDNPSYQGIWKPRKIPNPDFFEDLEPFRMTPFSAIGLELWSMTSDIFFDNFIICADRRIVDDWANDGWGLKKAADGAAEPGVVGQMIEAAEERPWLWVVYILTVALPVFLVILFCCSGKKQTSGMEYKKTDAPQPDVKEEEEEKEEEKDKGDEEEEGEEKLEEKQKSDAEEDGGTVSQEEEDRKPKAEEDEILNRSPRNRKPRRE

Target: T1, GST-tagged full-length rat Arc (activity-regulated cytoskeleton-associated protein) with C-terminal histidine tag (rat) (UniProt Q63053)
T1 sequence: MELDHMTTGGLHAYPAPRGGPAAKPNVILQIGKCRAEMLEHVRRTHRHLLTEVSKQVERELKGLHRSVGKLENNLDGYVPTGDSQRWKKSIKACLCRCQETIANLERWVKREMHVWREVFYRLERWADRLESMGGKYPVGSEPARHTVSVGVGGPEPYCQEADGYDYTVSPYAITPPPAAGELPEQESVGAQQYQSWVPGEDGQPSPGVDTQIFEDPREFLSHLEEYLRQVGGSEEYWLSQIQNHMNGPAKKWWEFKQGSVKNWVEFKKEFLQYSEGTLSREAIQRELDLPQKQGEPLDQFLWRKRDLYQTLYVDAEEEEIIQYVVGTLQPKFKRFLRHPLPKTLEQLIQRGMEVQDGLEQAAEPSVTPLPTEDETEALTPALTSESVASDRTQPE
Test: affinity purification with mass spectrometry; GST-Arc or GST on glutathione sepharose beads, pre-cleared HEK293 lysate with 5 mM DTT, overnight at 4°C, washed 4x with ice-cold PBS; Coomassie-stained SDS-PAGE band excised, MALDI-TOF; only the target purified

binding: binds
Substance: calnexin, endogenous human (from UniProt P27824 21-592)
